Experimental data: PubChem BioAssay AID1508597 (Cure First, 2020)
Assay: 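Genes whose silencing sensitises or protects ovarian cancer cells against rucaparib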 (primary screen). Cell system: human ovarian carcinoma lines grown from tumours: OCI-P5x (papillary serous) and OCI-C5x (clear cell). Reagents: siRNA pool against human genes, 1.25 pmol siRNA per well. Time to read-out: 72 h or 96 h, depending on the cell culture. Challenge: rucaparib 20 µM (about IC30) or vehicle, present until read-out. Rucaparib or vehicle: Rucaparib. Cell line: OCI-C5x (clear cell). Read-out: 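ATP luminescence measured at 72 or 96 h according to the culture, then normalised and expressed as percent viability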. Direction: viability, normalised: higher = more viable cells remaining. Hit rule: 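a well counts as a hit if its normalised viability is under 80 percent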. Meaning of the calls: active = viability under 80%; inactive = viability 80% or more.
Shown is an unselected part of the about 2,100 reagents, in one setting of the screen. 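Calls flag viability under 80% in either arm, not effects specific to rucaparib; the reference for percent is not stated.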 Some reagents were tested in more than one well and are listed for each. No sequences are given here. Not given: the 100% reference.

| gene | technical replicate | viability, normalised (%) | Outcome |
| --- | --- | --- | --- |
| MAPKAPK5 (GeneID 8550) | 1 | 61.8 | active |
| MAPKAPK5 (GeneID 8550) | 2 | 59.2 | active |
| MAPKAPK5 (GeneID 8550) | 3 | 63 | active |
| KDM5A (GeneID 5927) | 1 | 50.4 | active |
| KDM5A (GeneID 5927) | 2 | 62.7 | active |
| KDM5A (GeneID 5927) | 3 | 52.6 | active |
| WNT7A (GeneID 7476) | 1 | 75.6 | active |
| WNT7A (GeneID 7476) | 2 | 69 | active |
| WNT7A (GeneID 7476) | 3 | 64.4 | active |
| HK1 (GeneID 3098) | 1 | 43.5 | active |
| HK1 (GeneID 3098) | 2 | 56.9 | active |
| HK1 (GeneID 3098) | 3 | 46.7 | active |
| RPS6KA2 (GeneID 6196) | 1 | 50 | active |
| RPS6KA2 (GeneID 6196) | 2 | 55.3 | active |
| RPS6KA2 (GeneID 6196) | 3 | 48.3 | active |
| ARID3A (GeneID 1820) | 1 | 72.6 | active |
| ARID3A (GeneID 1820) | 2 | 56.9 | active |
| ARID3A (GeneID 1820) | 3 | 44.5 | active |
| TTF1 (GeneID 7270) | 1 | 26.7 | active |
| TTF1 (GeneID 7270) | 2 | 36.2 | active |
| TTF1 (GeneID 7270) | 3 | 20.8 | active |
| TRIM28 (GeneID 10155) | 1 | 55.3 | active |
| TRIM28 (GeneID 10155) | 1 | 41.9 | active |
| TRIM28 (GeneID 10155) | 2 | 66 | active |
| TRIM28 (GeneID 10155) | 2 | 44.3 | active |
| TRIM28 (GeneID 10155) | 3 | 53.3 | active |
| TRIM28 (GeneID 10155) | 3 | 33.7 | active |
| PTP4A2 (GeneID 8073) | 1 | 71.3 | active |
| PTP4A2 (GeneID 8073) | 2 | 62 | active |
| PTP4A2 (GeneID 8073) | 3 | 63.5 | active |
| IKBKE (GeneID 9641) | 1 | 57 | active |
| IKBKE (GeneID 9641) | 2 | 60 | active |
| IKBKE (GeneID 9641) | 3 | 48.1 | active |
| MIER1 (GeneID 57708) | 1 | 40.9 | active |
| MIER1 (GeneID 57708) | 2 | 52.5 | active |
| MIER1 (GeneID 57708) | 3 | 39 | active |
| STING1 (GeneID 340061) | 1 | 58 | active |
| STING1 (GeneID 340061) | 2 | 43.1 | active |
| STING1 (GeneID 340061) | 3 | 38.2 | active |
| PRDM8 (GeneID 56978) | 1 | 46.1 | active |
| PRDM8 (GeneID 56978) | 2 | 33.4 | active |
| PRDM8 (GeneID 56978) | 3 | 34.9 | active |
| SETD3 (GeneID 84193) | 1 | 39.2 | active |
| SETD3 (GeneID 84193) | 2 | 38.5 | active |
| SETD3 (GeneID 84193) | 3 | 33.8 | active |
| RAD9A (GeneID 5883) | 1 | 55.2 | active |
| RAD9A (GeneID 5883) | 2 | 33.5 | active |
| RAD9A (GeneID 5883) | 3 | 48.4 | active |
| PTAR1 (GeneID 375743) | 1 | 44.3 | active |
| PTAR1 (GeneID 375743) | 2 | 42.4 | active |
| PTAR1 (GeneID 375743) | 3 | 42.5 | active |
| NUAK2 (GeneID 81788) | 1 | 41.2 | active |
| NUAK2 (GeneID 81788) | 2 | 44.9 | active |
| NUAK2 (GeneID 81788) | 3 | 50.4 | active |
| HDGFL1 (GeneID 154150) | 1 | 51.4 | active |
| HDGFL1 (GeneID 154150) | 2 | 39.6 | active |
| HDGFL1 (GeneID 154150) | 3 | 49.8 | active |

Part of the list above, set out differently:
gene,technical replicate,"viability, normalised (%)",Outcome
WNT7A (GeneID 7476),3,64.4,active
HK1 (GeneID 3098),1,43.5,active
HK1 (GeneID 3098),2,56.9,active
HK1 (GeneID 3098),3,46.7,active
RPS6KA2 (GeneID 6196),1,50,active
RPS6KA2 (GeneID 6196),2,55.3,active
RPS6KA2 (GeneID 6196),3,48.3,active
ARID3A (GeneID 1820),1,72.6,active
ARID3A (GeneID 1820),2,56.9,active
